Experiment: Pharmacokinetic interaction of tegoprazan and naproxen, alone or in combination (Cohort 1)
Design: species or system human (healthy adult males)
Settings: male, human, in vivo, 500 mg; read-out: AUCτ, Geometric LS Mean

- AUC: 0.743 µg·h/mL
SMILES: COc1ccc2cc([C@H](C)C(=O)O)ccc2c1 [Naproxen, naproxen, reference compound]

— patent US20230158001A1, “PHARMACEUTICAL COMPOSITION COMPRISING BENZIMIDAZOLE DERIVATIVE COMPOUND” (HK INNO.N CORPORATION, priority 2020, published 2023)
